Values from PubChem BioAssay AID1259254 (NCATS, 2017)
Purpose: 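Genome-wide screen for genes that prevent DNA re-replication in cancer cells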 (primary screen). Cell system: human HCT116 colorectal cancer cells. Knock-down reagent: single siRNA against human genes. Timing: 3 days. Measurement: 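Imaged Hoechst DNA stain sorts each cell into a cycle phase by DNA amount; per plate, G2 fraction set to 0% for non-targeting and 100% for GMNN siRNA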. Direction: G2 robust z-score: higher = more G2 cells, more excess DNA replication. Active means: 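An siRNA counts as active if its G2 robust z-score lies at least 5 MADs above the screen median; here such calls match roughly 38% of GMNN control or more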.
Shown is one part, drawn at random, of about 59,000 reagents tested. About 1,550 of all reagents (2.6%) were called active. 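G2 share is only a proxy for re-replication; each gene was hit by three separate siRNAs, and active genes were retested.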 The numbers tell different reagents against one gene apart. Not all columns of the deposit are shown. Not given: the amount of reagent.

G2 robust z-score, by gene and reagent
PAQR6: #1 -1.08 inactive; #2 -0.371 inactive; #3 0.695 inactive
SGCD: #1 2.6 inactive; #2 -0.385 inactive; #3 -0.378 inactive
PRRT1: #1 -0.202 inactive; #2 -0.322 inactive; #3 0.72 inactive
DGKQ: #1 2.41 inactive; #2 -0.0245 inactive; #3 -0.66 inactive
MAPK9: #1 -1.82 inactive; #2 -1.26 inactive; #3 -0.73 inactive
DMKN: #1 -0.828 inactive; #2 -0.218 inactive; #3 1.73 inactive
EVI2B: #1 -0.128 inactive; #2 0.624 inactive; #3 2.1 inactive
C1RL-AS1: #1 -0.464 inactive; #2 3.98 inactive; #3 -1.05 inactive
LINC02609: #1 -0.384 inactive; #2 1.21 inactive; #3 -0.565 inactive
ATP6V0E1: #1 -0.146 inactive; #2 -0.496 inactive; #3 0.166 inactive
TMEM97: #1 0.295 inactive; #2 -0.307 inactive; #3 -0.361 inactive
PNPT1: #1 -0.345 inactive; #2 0.191 inactive; #3 4.53 inactive
ABHD13: #1 -0.0731 inactive; #2 -1.08 inactive; #3 -0.357 inactive
PRR15L: #1 -0.0942 inactive; #2 -0.572 inactive; #3 2.17 inactive
GRB14: #1 -0.252 inactive; #2 -0.216 inactive; #3 -0.684 inactive
GEMIN6: #1 0.234 inactive; #2 2.39 inactive; #3 -0.272 inactive
MYH8: #1 -1 inactive; #2 0.152 inactive; #3 -0.108 inactive
RHOH: #1 2.92 inactive; #2 -0.299 inactive; #3 3.14 inactive
AKR1D1: #1 4.36 inactive; #2 -1.11 inactive; #3 -1.04 inactive
C3orf38: #1 -0.812 inactive; #2 -0.156 inactive; #3 1.31 inactive
OR4C11: #1 0.643 inactive; #2 1.63 inactive; #3 4.68 inactive
HOXA7: #1 -0.589 inactive; #2 -0.813 inactive; #3 11.9 active
RNPS1P1: #1 -0.588 inactive; #2 -0.292 inactive; #3 -0.46 inactive
RNF39: #1 0.674 inactive; #2 -0.965 inactive; #3 2.31 inactive
COA8: #1 1.31 inactive; #2 -0.0432 inactive; #3 -0.116 inactive
ZNF177: #1 -0.374 inactive; #2 0.0444 inactive; #3 0.964 inactive
TMCO5B: #1 -0.805 inactive; #2 0.187 inactive; #3 -0.587 inactive
PRAMEF5: #1 0.471 inactive; #2 1.77 inactive; #3 0.32 inactive
OR56A1: #1 0.18 inactive; #2 0.511 inactive; #3 -0.325 inactive
